{"source": "patent US7335669B2", "about": "“Use of dihydroquinoline to aid in increasing milk production and feed utilization” (Novus International, Inc., priority 2002, dated 2008)", "system": "lactating dairy cows", "experiment": "Example 2: switch-over pen trial, ethoxyquin 65 ppm in feed for three weeks, approximately 2400 lactating dairy cows", "format": "in vivo", "excerpt": "Approximately 2400 lactating dairy cows were divided into two treatment groups of four pens per group. The cows in one of the two groups were fed ethoxyquin (at a concentration of 65 ppm by weight based on the weight of the total feed fed to the cows) for three weeks, with the four pens of the other group serving as controls. For the next two weeks, neither of the groups was fed ethoxyquin. The pens were then switched so that the previous control group was fed ethoxyquin (at a concentration of 65 ppm by weight based on the weight of the total feed fed to the cows) for three weeks. Milk production and feed intake were measured and feed efficiencies were calculated. The following table reports the means and pooled SEM results after correction for pen effects (wherein “Treated” refers to the cows receiving the ethoxyquin): […]", "key": {"[1]": {"settings": "ethoxyquin 65 ppm by weight of total feed, three weeks"}}, "data": [{"smiles": "CCOc1ccc2c(c1)C(C)=CC(C)(C)N2", "note": "[ethoxyquin, 6-ethoxy-1,2-dihydro-2,2,4-trimethylquinoline]", "values": [{"measurement": "Variations in milk composition, treated vs control", "setting": "ethoxyquin 65 ppm", "value": "within the range of experimental error and so not significant"}, {"measurement": "Milk content: Fat", "setting": "[1]", "value": 3.31, "unit": "%"}, {"measurement": "Milk content: Lactose", "setting": "[1]", "value": 4.78, "unit": "%"}, {"measurement": "Milk content: Protein", "setting": "[1]", "value": 2.92, "unit": "%"}, {"measurement": "Milk content: SNF", "setting": "[1]", "value": 8.60, "unit": "%"}]}]}
